Experimental findings from PubChem BioAssay AID2685 (National Center for Advancing Translational Sciences (NCATS), 2010) are described below.

This test is described as follows: qHTS Assay for Lipid Storage Modulators in Drosophila S3 Cells.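 For cell number change: cells counted by Cell Tracker Red CMTPX staining in the red channel.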 The following applies: BODIPY lipid droplet fluorescence, 18-24 h; for cell number change: measured here: cell count max response, cells fed with added oleic acid. An outline of the steps:
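Drosophila S3 cells got compounds at several concentrations plus oleic acid (400 uM solution). Laser-scanning cytometry with 488 nm excitation read lipid droplets at 500-530 nm and cells at 575-640 nm. Percent activity was relative to 20 uM Triacsin C.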
(In qHTS, concentration-response curves come from the screen itself.)

Setting [1] is: measured here: lipid fluorescence (Fed channel) AC50, cells fed with added oleic acid.
The mark [2] stands for this setting: measured here: cell number channel AC50, cells fed with added oleic acid.

The list shows a part of the results. Further columns of the screen follow, without active or inactive calls. The list favours compounds with an active or inconclusive main result. The note in brackets gives the kind of curve behind each potency; many fits are weak.

`Cc1c(C(=O)Nc2c(C)n(C)n(-c3ccccc3)c2=O)oc2c(Cl)cccc12`: the cell number change is 18.8%. For the same molecule, the AC50 under setting [1] was 3.66 µM [rising, full curve, poor fit].

With `C/C(=N\Nc1ccc(Cl)cc1)c1ccccn1`, the cell number change is -6.57%. For the same molecule, under setting [2], the AC50 was 4.11 µM [rising, partial curve, poor fit]. Further, the half-maximal activity concentration (AC50) under setting [1] was 2.06 µM [rising, partial curve].

Consider `CCOc1nc2c(c(=O)n(C)c(=O)n2C)n1Cc1ccccc1Cl`, for which the cell number change was -35.7%. The AC50 under setting [2] was 4.11 µM [falling, partial curve]. For the same molecule, under setting [1], the AC50 was 0.0291 µM [falling, full curve, poor fit].

On to `COc1ccc(-c2csc(Nc3ccccn3)n2)cc1OC`, for which the cell number change was -47.8%. Also, the AC50 under setting [2] was 18.4 µM [falling, partial curve, poor fit]. Further, the AC50 under setting [1] is 16.4 µM [falling, partial curve].

Take `COc1ccc2[nH]c3c(N4CCC(O)(c5cccc(C(F)(F)F)c5)CC4)ncnc3c2c1`: the cell number change is -37.9%. In addition, the concentration at half-maximal activity (AC50) under setting [2] is 32.6 µM [falling, single point]. For the same molecule, the AC50 under setting [1] is 29.1 µM [falling, single point].

With `CC(C)NC(=O)Cn1c(SCC(=O)N2CCCc3ccccc32)nc2ccccc21`, the AC50 under setting [2] is 2.59 µM [rising, partial curve, poor fit] and the AC50 under setting [1] was 0.411 µM [rising, full curve, poor fit].

Regarding `Cn1cccc1Cc1nnc(SCC(=O)Nc2ccc3c(c2)OCCO3)n1CCc1ccccc1`, the AC50 under setting [2] is 0.58 µM [falling, single point].

In the case of `Cc1c(Cl)cccc1NC(=O)CCN1C(=O)NC(C)(C)C1=O`, the cell number change was 26.1%.

Turning to `O=C(O)CCCN=C1CCCc2ccccc2N1`, the cell number change is -21.9%.

For `C/C(=N/NS(C)(=O)=O)c1ccc2ccccc2c1`, the AC50 under setting [1] is 16.4 µM [rising, partial curve].

Consider `O=C(CN1CCCC1)Nc1cc(F)ccc1F`, for which, under setting [1], the AC50 is 0.00517 µM [rising, full curve, poor fit].

As for `CN(C)S(=O)(=O)c1ccc2oc(SCC(N)=O)nc2c1`, the cell number change is -32.3%. Further, the half-maximal activity concentration (AC50) under setting [2] is 29.1 µM [falling, single point]. For the same molecule, the concentration at half-maximal activity (AC50) under setting [1] was 29.1 µM [falling, single point].

Consider `Cn1[nH]c(C(F)(F)F)cc1=O`, for which the cell number change came out at 11.2%.

On to `O=C(Cc1ccon1)c1ccc(O)cc1O`, for which the cell number change was 47.7%. Moreover, the AC50 under setting [2] is 29.1 µM [rising, single point].

`CC(C)c1cc(C(=O)Nc2ccc3c(c2)OCO3)no1`: the cell number change is 41.2%. Further, the AC50 under setting [2] was 13 µM [rising, partial curve]. Moreover, under setting [1], the concentration at half-maximal activity (AC50) was 11.6 µM [rising, partial curve].

As to `COc1ccc(NC(=O)CCSCCC(=O)Nc2ccc(OC)cc2OC)c(OC)c1`, the cell number change was 4.08%. For the same molecule, under setting [1], the AC50 was 8.2 µM [rising, single point].

As for `CS(=O)(=O)N1CCN(Cc2cc(=O)n3ccsc3n2)CC1`, the cell number change is -3.3%.

Consider `CCOC(=O)c1sc2nc(N3CCCC3)c3c(c2c1N)CC(C)(C)OC3`, for which the AC50 under setting [1] was 5.17 µM [falling, single point].

Turning to `N=c1c2c(n(Cc3ccc(F)cc3)c3c1CCC3)CCCC2`, under setting [2], the AC50 was 0.731 µM [rising, single point].

With `Cc1sc2ncnc(N3CCN(S(=O)(=O)c4ccc(F)cc4)CC3)c2c1C`, the cell number change was -30.8%. Also, the half-maximal activity concentration (AC50) under setting [2] was 25.9 µM [falling, single point].

In the case of `Cc1cc(C)c(S(=O)(=O)Nc2cc(SCC(=O)O)c(O)c3ccccc23)cc1C`, the cell number change was -31.8%. The AC50 under setting [1] was 6.51 µM [rising, single point].

As for `COc1ccc(-c2cc(C(=O)NC3CCCC3)no2)cc1OC`, the cell number change is -3.18%. Moreover, under setting [1], the AC50 is 0.517 µM [rising, full curve].

In the case of `OC(CN1CCN(c2ncc(C(F)(F)F)cc2Cl)CC1)c1ccccc1` (stereo unspecified), the cell number change was -7.44%.

On to `CN(C)/C=N/NC(=O)c1ccccc1`, for which the cell number change is 5.48%. In addition, under setting [2], the AC50 is 3.66 µM [falling, single point]. Also, the concentration at half-maximal activity (AC50) under setting [1] is 6.51 µM [falling, single point].

Turning to `CC(N=c1ccccn1C(=O)Nc1ccc(Cl)cc1)c1ccco1` (stereo unspecified), the cell number change was -16.5%. Also, under setting [1], the half-maximal activity concentration (AC50) is 0.731 µM [falling, single point].

On to `COc1ccccc1N1CCN(CCN2C(=O)C3CCCN3C2=O)CC1` (stereo unspecified), for which the cell number change is 13.1%. Also, under setting [1], the AC50 is 2.31 µM [rising, partial curve].

Consider `N#CCCN1CCN(S(=O)(=O)c2ccc(S(=O)(=O)NCC3CCCO3)cc2)CC1` (stereo unspecified), for which the cell number change amounted to 4.28%. In addition, the AC50 under setting [1] was 25.9 µM [falling, single point].

As to `COc1cc2c(cc1OC)C1=CC(=O)C(=O)N1C(C)(C)C2`, the cell number change was -41.9%. Besides, under setting [2], the AC50 is 18.4 µM [falling, partial curve]. Also, the AC50 under setting [1] is 20.6 µM [falling, partial curve].

With `CC(C(=O)NC1CCCC1)N(Cc1ccco1)C(=O)c1snc(C(=O)NC2CCCC2)c1N` (stereo unspecified), the cell number change was -22.9%. Moreover, the AC50 under setting [1] was 0.0651 µM [rising, full curve, poor fit].

For `CCOc1ccccc1NS(=O)(=O)c1c(C)[nH]c(C)c1C(=O)N1CCCCC1`, the cell number change turned out to be 3.36%.

Consider `COc1ccc(N(C(=O)c2cccc([N+](=O)[O-])c2)S(=O)(=O)c2cccs2)cc1`, for which the cell number change was -16.3%. The AC50 under setting [1] is 29.1 µM [falling, single point].

Regarding `CN(C(=O)COc1ccc(Cl)cc1Br)C1CCCCC1`, the cell number change was -45%. Besides, the AC50 under setting [2] is 10.3 µM [falling, partial curve]. Further, the AC50 under setting [1] was 6.51 µM [rising, single point].

Take `CCOc1cc(C(=O)NC2=NCCS2)cc(OCC)c1OCC`: the cell number change came to 47%. For the same molecule, the AC50 under setting [2] is 1.84 µM [rising, full curve, poor fit]. Also, the AC50 under setting [1] was 5.17 µM [rising, full curve].

In the case of `Cc1ccccc1/C=N/NC(=O)c1sccc1C`, the cell number change was 31.3%. Under setting [2], the AC50 is 3.26 µM [rising, partial curve]. In addition, the AC50 under setting [1] is 8.2 µM [rising, partial curve].

Take `CN(CC(=O)Nc1ccccc1N1CCOCC1)S(=O)(=O)c1ccc(Cl)cc1`: the cell number change turned out to be 18.4%. Moreover, the AC50 under setting [2] was 1.46 µM [rising, partial curve].

Consider `CSc1ccccc1NC(=O)c1cc(Cl)sc1Cl`, for which the cell number change came to 11.1%. Besides, the AC50 under setting [1] is 0.651 µM [rising, full curve, poor fit].

Regarding `COCCn1c(SCC(=O)NC2CCCC2)nnc1-c1ccco1`, under setting [1], the concentration at half-maximal activity (AC50) was 0.112 µM [falling, full curve, poor fit].

As for `Cc1cccc(N2CCN(c3ccc4cc(S(=O)(=O)N5CCCCC5)ccc4n3)CC2)c1C`, the cell number change was determined as 15.3%. Further, under setting [1], the half-maximal activity concentration (AC50) is 23.1 µM [rising, partial curve].

In the case of `Cc1cccc(NC(=S)NCCC(C)C)c1`, the cell number change was -8.31%. Besides, the half-maximal activity concentration (AC50) under setting [1] was 6.51 µM [falling, partial curve].

With `CCN(CC)S(=O)(=O)c1ccc(NC2c3ccccc3C(=O)N2Cc2ccc3c(c2)OCO3)cc1` (stereo unspecified), the half-maximal activity concentration (AC50) is 0.517 µM [rising, full curve] under setting [2] and 0.731 µM [rising, full curve] under setting [1].

For the molecule `O=C1C=C(c2cccc3c2oc2ccccc23)C[C@@H](c2ccc(F)cc2)C1`, the cell number change is -5.5%. Further, under setting [1], the half-maximal activity concentration (AC50) was 0.116 µM [falling, single point].

For the molecule `Cc1cc(C)n2c(SCC(=O)Nc3ccccc3)nnc2n1`, the cell number change came to 23.6%. The AC50 under setting [1] is 23.1 µM [rising, single point].

Take `CC(=O)Nc1ccc2nc(NC(=O)COc3ccccc3Cl)sc2c1`: the cell number change was determined as 67%. Also, under setting [2], the half-maximal activity concentration (AC50) was 9.2 µM [rising, partial curve, poor fit]. Further, under setting [1], the AC50 was 23.1 µM [rising, partial curve].

Regarding `CSc1c(CC(=O)Nc2ccccc2C(F)(F)F)n(Cc2ccccc2)c2ccccc12`, the cell number change worked out at 2.67%. The half-maximal activity concentration (AC50) under setting [2] was 1.3 µM [falling, full curve]. For the same molecule, the concentration at half-maximal activity (AC50) under setting [1] is 0.461 µM [falling, full curve, poor fit].

Regarding `COc1cccc(C(=O)N/N=C2/SCC(=O)N2CCc2ccc(OC)c(OC)c2)c1`, the half-maximal activity concentration (AC50) was 2.31 µM [rising, partial curve] under setting [2] and 1.84 µM [rising, partial curve] under setting [1].

Take `Cc1ccc(C(=O)NCCCn2ccnc2)cn1`: the cell number change was found to be 14.5%. For the same molecule, the half-maximal activity concentration (AC50) under setting [2] is 2.59 µM [falling, partial curve]. Further, the AC50 under setting [1] is 6.51 µM [falling, single point].

For the molecule `COc1ccc(Cl)cc1NC(=O)CN1CCCCCC1`, the cell number change is -21.9%. For the same molecule, the AC50 under setting [2] is 2.59 µM [falling, single point]. For the same molecule, the half-maximal activity concentration (AC50) under setting [1] is 5.8 µM [falling, partial curve].

On to `CCOc1cccc2cc(C(=O)NC(C)c3ccccc3)c(=N)oc12` (stereo unspecified), for which the cell number change is 32.4%. For the same molecule, under setting [2], the AC50 was 3.66 µM [rising, full curve]. Besides, the AC50 under setting [1] was 29.1 µM [rising, single point].

In the case of `CCn1c(COc2cc(C)ccc2C(C)C)nnc1SCC(=O)Nc1nccs1`, the cell number change stood at 15.5%. Besides, under setting [1], the half-maximal activity concentration (AC50) was 3.26 µM [rising, full curve, poor fit].

With `CCCCC1C(=O)CC[C@H]2[C@@H]1CC(=O)[C@@H]2C/C=C\CCCC(=O)O` (stereo partly specified), the AC50 under setting [1] was 8.2 µM [falling, partial curve].

Consider `Cc1cc(C(=O)CSc2nnnn2-c2ccccc2)c(C)n1CCc1ccccc1`, for which the half-maximal activity concentration (AC50) was 1.16 µM [rising, partial curve] under setting [2] and 2.06 µM [rising, partial curve] under setting [1].

Consider `O=C(COC(=O)CSc1ccc([N+](=O)[O-])cc1)NCCCc1ccccc1`, for which the cell number change came to 5.42%.

Regarding `C/C=C(\C)C(=O)Nc1cccc(C2=NOC3(C2)C[C@H](C(N)=O)N(C(=O)C(c2ccccc2)c2ccccc2)C3)c1` (stereo partly specified), the cell number change came to 13.6%. Also, the AC50 under setting [1] was 1.46 µM [rising, partial curve].

Take `Cc1ccc(C(=O)N[C@H](C(=O)N2CCN(c3ccccc3F)CC2)C(C)C)cc1`: the cell number change came out at 12.6%. The concentration at half-maximal activity (AC50) under setting [1] was 3.66 µM [rising, full curve].

Regarding `C/C(=N\NC(=O)c1ccc(Cl)cc1)c1cccs1`, the cell number change was -6.63%.

Turning to `Cc1ccc(CNc2nc(C)c(C(=O)N(C)C)s2)cc1`, the cell number change is 14%. For the same molecule, the AC50 under setting [1] is 1.03 µM [falling, single point].

For the molecule `CCC(C)Sc1nc2c(c(=O)n1C)SC(C)C2` (stereo unspecified), the cell number change was found to be 21.4%. In addition, the AC50 under setting [1] was 0.651 µM [falling, full curve].

`Cc1cc(C)nc(NS(=O)(=O)c2ccc(NC(=O)CN3C(=O)c4ccccc4C3=O)cc2)n1`: under setting [1], the half-maximal activity concentration (AC50) was 5.8 µM [falling, partial curve].

As usually defined, the AC50 is the concentration giving half of the maximal activity seen. Lower therefore signals activity at low concentration.
